# According to PubChem BioAssay AID2685 (National Center for Advancing Translational Sciences (NCATS), 2010):
# This is one part of the list. Shown are side measurements of this screen, not its main read-out; they come without a call. The list favours compounds with an active or inconclusive main result. The note in brackets gives the kind of curve behind each potency; many fits are weak.
# Assay: qHTS Assay for Lipid Storage Modulators in Drosophila S3 Cells;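 as to cell number change: cells counted by Cell Tracker Red CMTPX staining in the red channel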
# Settings: BODIPY lipid droplet fluorescence, 18-24 h; for cell number change: measured here: cell count max response, cells fed with added oleic acid
# In short: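 Drosophila S3 cells loaded with oleic acid (400 uM, as added) and compounds at several concentrations; lipid droplets imaged by 488-nm laser-scanning cytometry, 500–530 nm intensity and object ratio to cell channel. Percent activity normalized to 20 uM Triacsin C.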
# [1] = measured here: cell number channel AC50, cells fed with added oleic acid
# [2] = measured here: lipid fluorescence (Fed channel) AC50, cells fed with added oleic acid
SMILES,cell number change [%],AC50 [1],AC50 [2]
COCCN1CCN(C(=O)c2cc(COc3ccc(F)c(F)c3)on2)CC1,-0.867,,
O=C(COC(=O)c1cccc(F)c1)NC1CC1,,"0.184 µM [falling, full curve, poor fit]",
O=C(CN1CCN(CCC(=O)Nc2ccccc2F)CC1)Nc1ccc(F)cc1,12.3,,
Cc1cc(C)nc(Nc2ncc(O)n2-c2ccc(C)c(C)c2)n1,1.44,"0.291 µM [rising, single point]",
Cn1cccc1C(=O)NCC(c1ccc(F)cc1)N1CCOCC1 (stereo not drawn),7.65,,
O=C(CN1CSCC1=O)N1CCN(S(=O)(=O)c2ccc(Cl)cc2)CC1,-9.02,,
CC(=O)c1ccc(NC(=O)Nc2ccc(Br)cc2C)cc1,-41.4,"32.6 µM [falling, single point]","29.1 µM [falling, single point]"
COC1CCCCC1Nc1cc(C)ccc1C (stereo not drawn),,,"0.82 µM [falling, full curve, poor fit]"
CCCN(CC(=O)Nc1ccccc1C)C(=O)c1cccc(S(=O)(=O)N2CCc3ccccc3C2)c1,-4.04,,"18.4 µM [rising, single point]"
c1ccc(-c2cnc(CSc3ncnc4sccc34)o2)cc1,-30.3,"8.2 µM [falling, partial curve]",
CNC(=O)NCCN1CCCC1=O,1.83,,"18.4 µM [falling, single point]"
Cc1nc(-c2ccc(F)cc2)c(CC(=O)NCC(=O)Nc2ccc(F)c(F)c2)s1,9.37,,"16.4 µM [rising, partial curve]"
C=COCCn1c(-c2nonc2N)nc2ccccc21,10.1,,"13 µM [rising, single point]"
CC(C)(C)c1ccc(OCC(=O)NNC(=O)Nc2ccccc2)cc1,3.57,,
O=C(NCCc1ccccc1)C1c2ccccc2C(=O)N1Cc1cccs1 (stereo not drawn),-15.8,,
O=[N+]([O-])c1ccc2oc(C(O)c3cccc(Cl)c3)cc2c1 (stereo not drawn),-38.3,"29.1 µM [falling, single point]","29.1 µM [falling, single point]"
O=C(CCc1c[nH]c2ccccc12)N=Nc1c(O)[nH]c2ccccc12,,,"6.51 µM [rising, full curve, poor fit]"
O=C(c1noc2c1CCCC2)N1CCCCC1,6.29,,"20.6 µM [falling, single point]"
CSCCC(N=CC1=C(O)CC(C)(C)CC1=O)C(=O)O (stereo not drawn),-25.4,"0.146 µM [falling, full curve, poor fit]","29.1 µM [falling, single point]"
O=C(OCCN1C(=O)c2ccccc2C1=O)c1cc(=O)[nH]c2ccccc12,-16.6,,
O=C(NN1CCOCC1)c1cnn2c(C(F)F)cc(-c3ccccc3)nc12,17.4,,"0.206 µM [rising, single point]"

SMILES,cell number change [%],AC50 [1],AC50 [2]
CCC1(C)Cc2nc3[nH]c(=S)n(-c4ccccc4C)c(=O)c3cc2CO1 (stereo not drawn),-17.1,,"1.16 µM [falling, partial curve, poor fit]"
O=C(NC1(c2ccccc2)CC1)C1CCC(=O)N(Cc2ccc(Cl)cc2)C1 (stereo not drawn),5.66,,
CCN(CC)c1ccc(C(=O)NNC(=O)CCl)cc1,-18.2,,"13 µM [falling, partial curve, poor fit]"
CCC(CC)N1CCN(CC2CC=CCC2)CC1 (stereo not drawn),-41.7,,
CCN1CCN(C(=O)/C=C/c2ccc(OC)cc2)CC1,-8.01,,"29.1 µM [rising, single point]"
COc1ccc(NC(=O)c2ccccc2NC(=O)CSc2ccc(C)cc2)cc1,-45.9,"29.1 µM [falling, single point]","7.31 µM [falling, partial curve, poor fit]"
COC1=CC(=Cc2c(N)n3nc(CC(=O)N4CCOCC4)sc3nc2=O)C=C(OC)C1=O,-89.9,"29.1 µM [falling, partial curve]","0.58 µM [falling, full curve]"
CC(C)c1ccc(/C=C(\NC(=O)c2ccccc2)C(=O)NCCCN2CCOCC2)cc1,6.9,,
COc1ccc(-c2sc3cc4c(cc3c2C#CC2(O)CCCCC2)OCO4)cc1,-34.8,"5.8 µM [falling, single point]",
Cc1cccc(OCc2nc(-c3ccccn3)n[nH]2)c1,32.7,"29.1 µM [rising, single point]","29.1 µM [rising, single point]"
CCOc1ccc(S(=O)(=O)NCC(=O)NC2CCCCC2)cc1,-14.5,,"4.61 µM [rising, full curve]"
COc1ccc(NC(=O)C2CCCN(S(=O)(=O)c3cccc4cccnc34)C2)cc1OC (stereo not drawn),,,"0.461 µM [rising, single point]"
Oc1ccc2ccccc2c1C1Nc2cccc3cccc(c23)N1,6.79,"0.13 µM [falling, full curve, poor fit]","0.461 µM [falling, full curve, poor fit]"
Cc1cccc(OCc2nnc(SCC(=O)N(C(C)C)C(C)C)n2Cc2ccco2)c1C,-20.7,,"0.103 µM [falling, partial curve]"
CSc1ccccc1OCc1cc(C(=O)N(C)Cc2ccncn2)no1,4.92,,"6.51 µM [rising, single point]"
O=C(CN1CCOCC1)Nc1cccc(C(=O)Nc2cccc(C(F)(F)F)c2)c1,,"2.06 µM [rising, partial curve]",
CC1CCN(S(=O)(=O)c2cccc(S(=O)(=O)N3CCCC3)c2)CC1,12.8,,
COc1ccc(C2CC(=O)c3cnc(NC(=O)c4cccc(OC)c4)nc3C2)cc1 (stereo not drawn),,,"7.31 µM [rising, partial curve]"
COc1ccccc1CCC(=O)NC1CCCN(c2ccc(C(F)(F)F)cn2)C1 (stereo not drawn),93.4,"29.1 µM [rising, single point]",
CCOC(=O)C1(CCOc2ccccc2)CCN(Cc2cccc(OCCO)c2)CC1,22.3,,"29.1 µM [rising, single point]"
CCN(CC)S(=O)(=O)c1cccc(NC(=O)CN(C)Cc2cccc(OC)c2)c1,-19.5,,
